These are yes or no findings as the source states them, for the method shown. Some results given as binding are weak or reduced against the parent protein; the word gives no strength. Where a sequence is shown, tags or fusion partners need not be part of it.

In paper doi:10.1101/2024.07.09.602679 (bioRxiv, 2024) one finds binding data, which are given here for 7 molecules.

The labels stand for the following.
T1: SmE with N-terminal His6-TEV tag (S. cerevisiae) (UniProt Q12330)
T1 sequence: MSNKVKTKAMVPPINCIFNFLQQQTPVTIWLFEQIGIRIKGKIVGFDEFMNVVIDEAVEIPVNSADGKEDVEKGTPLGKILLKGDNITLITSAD

T2: SmG with N-terminal His6-TEV tag (S. cerevisiae) (UniProt P40204)
T2 sequence: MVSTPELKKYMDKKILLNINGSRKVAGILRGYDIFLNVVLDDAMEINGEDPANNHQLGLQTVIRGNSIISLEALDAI

T3: SmB (residues 1-105) with N-terminal His6-TEV tag (S. cerevisiae) (UniProt P40018)
T3 sequence: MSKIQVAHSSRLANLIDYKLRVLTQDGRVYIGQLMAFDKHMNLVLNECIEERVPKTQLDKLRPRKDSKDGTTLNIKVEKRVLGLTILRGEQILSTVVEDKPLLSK

T4: D1/D2/F/E/G pentamer (5Sm) (S. cerevisiae, UniProt Q02260 1-109; Q06217 1-110; P54999 1-86; Q12330 1-94; P40204 1-77)
T4 sequence (looked up) 1: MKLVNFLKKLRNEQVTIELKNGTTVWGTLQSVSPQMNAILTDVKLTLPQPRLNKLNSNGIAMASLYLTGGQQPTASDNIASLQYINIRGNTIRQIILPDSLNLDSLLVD
T4 sequence (looked up) 2: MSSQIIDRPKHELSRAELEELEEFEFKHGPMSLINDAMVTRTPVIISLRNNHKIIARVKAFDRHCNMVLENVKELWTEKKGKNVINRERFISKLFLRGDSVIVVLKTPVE
T4 sequence (looked up) 3: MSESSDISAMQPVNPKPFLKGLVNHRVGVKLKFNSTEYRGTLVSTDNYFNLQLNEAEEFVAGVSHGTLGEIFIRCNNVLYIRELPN
T4 sequence (looked up) 4: T1 sequence
T4 sequence (looked up) 5: T2 sequence

T5: Brr1/5Sm heterohexamer (S. cerevisiae, UniProt Q99177 1-341; Q02260 1-109; Q06217 1-110; P54999 1-86; Q12330 1-94; P40204 1-77)
T5 sequence (looked up) 1: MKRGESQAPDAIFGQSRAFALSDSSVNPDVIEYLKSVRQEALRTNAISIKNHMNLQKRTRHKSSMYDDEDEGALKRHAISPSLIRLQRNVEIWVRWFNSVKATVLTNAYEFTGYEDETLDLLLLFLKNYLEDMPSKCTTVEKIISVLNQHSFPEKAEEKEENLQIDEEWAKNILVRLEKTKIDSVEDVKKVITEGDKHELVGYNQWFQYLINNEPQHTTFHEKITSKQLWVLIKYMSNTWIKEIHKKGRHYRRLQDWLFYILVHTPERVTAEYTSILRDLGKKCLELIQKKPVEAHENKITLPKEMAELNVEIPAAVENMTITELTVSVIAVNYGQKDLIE
T5 sequence (looked up) 2: T4 sequence (looked up) 1
T5 sequence (looked up) 3: T4 sequence (looked up) 2
T5 sequence (looked up) 4: T4 sequence (looked up) 3
T5 sequence (looked up) 5: T1 sequence
T5 sequence (looked up) 6: T2 sequence

T6: Brr1Δ(122-197) with N-terminal His6-TEV tag (S. cerevisiae) (UniProt Q99177)
T6 sequence: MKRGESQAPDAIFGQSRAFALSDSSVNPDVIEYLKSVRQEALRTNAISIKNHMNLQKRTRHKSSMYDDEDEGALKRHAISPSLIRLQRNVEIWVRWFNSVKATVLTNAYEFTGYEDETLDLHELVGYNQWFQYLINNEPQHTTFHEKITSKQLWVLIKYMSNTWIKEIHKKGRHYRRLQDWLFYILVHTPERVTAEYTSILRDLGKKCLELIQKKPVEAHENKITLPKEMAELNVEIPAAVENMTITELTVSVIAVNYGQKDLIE

T7: full-length Brr1 with N-terminal His6-TEV tag (S. cerevisiae) (UniProt Q99177)
T7 sequence: T5 sequence (looked up) 1

T8: Lot5 (residues 1-227) with N-terminal His6-TEV tag (S. cerevisiae) (UniProt P34234)
T8 sequence: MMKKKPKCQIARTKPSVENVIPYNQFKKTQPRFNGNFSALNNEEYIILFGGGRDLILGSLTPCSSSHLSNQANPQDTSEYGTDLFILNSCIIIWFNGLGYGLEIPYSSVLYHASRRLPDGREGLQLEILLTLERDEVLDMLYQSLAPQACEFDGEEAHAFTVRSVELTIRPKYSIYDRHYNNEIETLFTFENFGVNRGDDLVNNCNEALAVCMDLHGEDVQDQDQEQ

T9: SmD3/B subcomplex with the His6-TEV tag on SmB (S. cerevisiae) (UniProt P40018+P43321)
T9 sequence 1: T3 sequence
T9 sequence 2: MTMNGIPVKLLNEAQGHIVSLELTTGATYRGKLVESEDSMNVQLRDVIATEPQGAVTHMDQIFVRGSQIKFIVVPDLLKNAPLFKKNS

T10: SmD2 with N-terminal His6-TEV tag (S. cerevisiae) (UniProt Q06217)
T10 sequence: T4 sequence (looked up) 2

B1: SmD3 (residues 1-88) (domain or fragment, UniProt P43321 1-88)
chain: T9 sequence 2
B2: SmD3/B subcomplex, HT-tag removed (complex, S. cerevisiae)
chain 1: T3 sequence
chain 2: T9 sequence 2
B3: Lot5 (residues 1-227) with N-terminal His6-TEV tag (domain or fragment, S. cerevisiae, UniProt P34234 1-227, looked up)
chain: T8 sequence
B4: extra helical domain (EHD) of Brr1 (116-197) (domain or fragment, UniProt Q99177 116-197)
chain: DETLDLLLLFLKNYLEDMPSKCTTVEKIISVLNQHSFPEKAEEKEENLQIDEEWAKNILVRLEKTKIDSVEDVKKVITEGDK
B5: full-length Brr1, HT-tag removed (natural protein, S. cerevisiae, UniProt Q99177 1-341, looked up)
chain: T5 sequence (looked up) 1
B6: SmD1 (residues 1-109) (domain or fragment, UniProt Q02260 1-109)
chain: T4 sequence (looked up) 1

Test [1] concerns the target T1, SmE with N-terminal His6-TEV tag (S. cerevisiae). The test can be described thus: co-purification after co-expression.
For test [2], the target named is T2, SmG with N-terminal His6-TEV tag (S. cerevisiae). The test can be described thus: co-purification after co-expression.
The target in test [3] is T3, SmB (residues 1-105) with N-terminal His6-TEV tag (S. cerevisiae). The test can be described thus: co-purification after co-expression.
Test [4] has the same target. The test can be described thus: SEC.
Test [5] addresses T4, D1/D2/F/E/G pentamer (5Sm). The test can be described thus: SEC. (SEC sorts molecules by how far they enter the pores of the column.)
In a further test the target is T5, Brr1/5Sm heterohexamer. The test can be described thus: pull-down.
The target in test [6] is T6, Brr1Δ(122-197) with N-terminal His6-TEV tag (S. cerevisiae). The test can be described thus: pull-down.
For test [7], the target named is T7, full-length Brr1 with N-terminal His6-TEV tag (S. cerevisiae). The test can be described thus: pull-down.
The target in test [8] is T8, Lot5 (residues 1-227) with N-terminal His6-TEV tag (S. cerevisiae). The test can be described thus: SEC.
Test [9] addresses B5. The test can be described thus: SEC.
Test [10] deals with T9, SmD3/B subcomplex with the His6-TEV tag on SmB (S. cerevisiae). The test can be described thus: pull-down.
Test [11] deals with reconstituted Sm core with the HT-tag on SmB (S. cerevisiae) (UniProt Q02260). The test can be described thus: pull-down.
In test [12] the target is T10, SmD2 with N-terminal His6-TEV tag (S. cerevisiae). The test can be described thus: co-purification after co-expression.
Test [13] has the same target. The test can be described thus: SEC.

On to SmF (from UniProt P54999 1-86), for which the binding entry in [1] and in test [2] was “binds” each time.

For B1, the binding result in test [3] and in [4] was “binds” throughout.

Consider B2, for which the binding result (in test [5]; with Brr1/5Sm heterohexamer; in test [6]; in test [7]) was “no binding” in each case.

With B3, in test [8], the binding result is listed as “no binding”.

For the molecule B4, the binding result in [6] is recorded as “no binding”.

Take B5: the binding entry in [9], in test [10] and in test [11] was “no binding” in each case.

On to B6, for which the binding result in [12] and in [13] was “binds” in each case.
